Laboratory results as given in publication PMC5733394.
Results are given in words; binding and its absence hold for the method and conditions named. Some results given as binding are weak or reduced against the parent protein; the word gives no strength.

By UniProt entry, the sequences of proteins in these tests, tags left out. Residues count along the entry.
UniProt G3I8R9, residues 19-654: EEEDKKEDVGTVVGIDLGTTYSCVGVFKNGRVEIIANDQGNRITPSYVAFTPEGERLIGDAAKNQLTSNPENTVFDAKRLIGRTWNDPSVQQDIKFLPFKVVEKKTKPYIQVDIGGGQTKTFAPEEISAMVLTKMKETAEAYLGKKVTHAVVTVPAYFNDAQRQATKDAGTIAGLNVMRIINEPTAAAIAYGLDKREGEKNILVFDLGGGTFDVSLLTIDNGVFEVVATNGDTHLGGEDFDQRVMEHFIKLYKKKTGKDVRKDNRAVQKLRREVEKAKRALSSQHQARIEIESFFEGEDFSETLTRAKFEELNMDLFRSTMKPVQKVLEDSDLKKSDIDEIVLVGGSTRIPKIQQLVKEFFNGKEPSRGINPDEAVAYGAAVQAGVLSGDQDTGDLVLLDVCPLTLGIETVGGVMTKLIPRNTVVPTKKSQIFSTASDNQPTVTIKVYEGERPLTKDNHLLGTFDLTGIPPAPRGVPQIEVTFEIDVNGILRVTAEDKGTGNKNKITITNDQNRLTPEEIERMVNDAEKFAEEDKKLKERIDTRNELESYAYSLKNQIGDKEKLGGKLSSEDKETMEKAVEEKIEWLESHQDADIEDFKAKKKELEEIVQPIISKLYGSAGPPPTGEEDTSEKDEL

Target: BiP (purified, wild type) (UniProt G3I8R9)
Assay: FRET or BRET; kinetic with competitor; 0.2 μM donor and acceptor, 50 μM BiP, 2.5 μM Smt3-ERdj4-MBP, 2 mM ATP with regeneration system; at 60 min CH1 heptapeptide and/or 2.5 μM ERdj6 J domain added; both purified

- binding: binds
Binder: HTFPAVL [CH1 heptapeptide]
